According to patent US9096494B2, “Arachidonic acid analogs and methods for analgesic treatment using same” (priority 2009, dated 2015):
Some entries share one result that the patent states for a list of compounds.

System: mice
Assay: Tail-flick assay in mouse
Type: in vivo
Conditions: 10 mg/kg intravenous bolus
Method: The tail-flick assay is based on the time measured to reflex withdrawal of the tail in response to a radiant heat source. The maximum exposure time to the radiant heat source is set at 10 seconds. Prior to treatment, a baseline (BL) time measured to tail-flick withdrawal is determined after two exposures to the radiant source separated by a 30 min period. Control mice are intravenously treated with vehicle and test mice are intravenously treated with analgesic test compound. Data of tail-flick withdrawal of treated mice (TM) are calculated as maximum possible effect (MPE), where MPE=(TM−BL)/(10−BL). Tail-flick withdrawal is measured at 5 min, 15 min, 30 mm, and 1 hr. A total of 3-5 mice are used for each time point tested.

Compound	time through which the maximal analgesic response lasts, tail-flick [min]
CCCCCC(=O)N(CC/C=C\C/C=C\C/C=C\CCCC(=O)NC1CC1)C(C)C [CMX-020]	≥ 30
CN1CC[C@]23c4c5ccc(O)c4O[C@H]2[C@@H](O)C=C[C@H]3[C@H]1C5 [Morphine, morphine, reference compound]	≥ 30
